PubChem BioAssay AID1508597 | Cure First, 2020
The deposit covers about 2,100 reagents; below is an unselected part. 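Calls flag viability under 80% in either arm, not effects specific to rucaparib; the reference for percent is not stated.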 The record does not give: the 100% reference.

Purpose: 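Genes whose silencing sensitises or protects ovarian cancer cells against rucaparib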 (primary screen)
Cell system: human ovarian carcinoma lines grown from tumours: OCI-P5x (papillary serous) and OCI-C5x (clear cell)
Reagents: siRNA pool against human genes, 1.25 pmol siRNA per well
Duration: 72 h or 96 h, depending on the cell culture
Conditions: rucaparib 20 µM (about IC30) or vehicle, present until read-out
Read-out: 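Luminescent ATP-based viability assay read 72 or 96 h after transfection, depending on culture, given as normalised percent viability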
Direction: viability, normalised: higher = more viable cells remaining
Hit rule: 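a well counts as a hit if its normalised viability is under 80 percent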
Calls: active = viability under 80%; inactive = viability 80% or more

| target gene | rucaparib or vehicle | cell line | technical replicate | viability, normalised (%) | Call |
| --- | --- | --- | --- | --- | --- |
| TAF10 | Rucaparib | OCI-C5x (clear cell) | 1 | 60.3 | active |
| TAF10 | Rucaparib | OCI-C5x (clear cell) | 2 | 60.5 | active |
| TAF10 | Rucaparib | OCI-C5x (clear cell) | 3 | 48.3 | active |
| TAF10 | Rucaparib | OCI-P5x (serous) | 1 | 42.7 | active |
| TAF10 | Rucaparib | OCI-P5x (serous) | 2 | 32.9 | active |
| TAF10 | Rucaparib | OCI-P5x (serous) | 3 | 48.4 | active |
| TAF10 | Vehicle | OCI-C5x (clear cell) | 1 | 44.6 | active |
| TAF10 | Vehicle | OCI-C5x (clear cell) | 2 | 50 | active |
| TAF10 | Vehicle | OCI-C5x (clear cell) | 3 | 41.2 | active |
| TAF10 | Vehicle | OCI-P5x (serous) | 1 | 56.9 | active |
| TAF10 | Vehicle | OCI-P5x (serous) | 2 | 48.5 | active |
| TAF10 | Vehicle | OCI-P5x (serous) | 3 | 71.7 | active |
| SBDS | Rucaparib | OCI-C5x (clear cell) | 1 | 72 | active |
| SBDS | Rucaparib | OCI-C5x (clear cell) | 2 | 72.4 | active |
| SBDS | Rucaparib | OCI-C5x (clear cell) | 3 | 66.6 | active |
| SBDS | Rucaparib | OCI-P5x (serous) | 1 | 73.4 | active |
| SBDS | Rucaparib | OCI-P5x (serous) | 2 | 88.7 | inactive |
| SBDS | Rucaparib | OCI-P5x (serous) | 3 | 56.7 | active |
| SBDS | Vehicle | OCI-C5x (clear cell) | 1 | 40.4 | active |
| SBDS | Vehicle | OCI-C5x (clear cell) | 2 | 38.7 | active |
| SBDS | Vehicle | OCI-C5x (clear cell) | 3 | 47 | active |
| SBDS | Vehicle | OCI-P5x (serous) | 1 | 79.1 | active |
| SBDS | Vehicle | OCI-P5x (serous) | 2 | 64.9 | active |
| SBDS | Vehicle | OCI-P5x (serous) | 3 | 70 | active |
| MEAF6 | Rucaparib | OCI-C5x (clear cell) | 1 | 42.3 | active |
| MEAF6 | Rucaparib | OCI-C5x (clear cell) | 2 | 35 | active |
| MEAF6 | Rucaparib | OCI-C5x (clear cell) | 3 | 50.4 | active |
| MEAF6 | Rucaparib | OCI-P5x (serous) | 1 | 53.4 | active |
| MEAF6 | Rucaparib | OCI-P5x (serous) | 2 | 53.3 | active |
| MEAF6 | Rucaparib | OCI-P5x (serous) | 3 | 55.4 | active |
| MEAF6 | Vehicle | OCI-C5x (clear cell) | 1 | 51.7 | active |
| MEAF6 | Vehicle | OCI-C5x (clear cell) | 2 | 60.2 | active |
| MEAF6 | Vehicle | OCI-C5x (clear cell) | 3 | 63.6 | active |
| MEAF6 | Vehicle | OCI-P5x (serous) | 1 | 72.9 | active |
| MEAF6 | Vehicle | OCI-P5x (serous) | 2 | 75.7 | active |
| MEAF6 | Vehicle | OCI-P5x (serous) | 3 | 76 | active |
| PHF2 | Rucaparib | OCI-C5x (clear cell) | 1 | 44.1 | active |
| PHF2 | Rucaparib | OCI-C5x (clear cell) | 2 | 50 | active |
| PHF2 | Rucaparib | OCI-C5x (clear cell) | 3 | 43.3 | active |
| PHF2 | Rucaparib | OCI-P5x (serous) | 1 | 54.1 | active |
| PHF2 | Rucaparib | OCI-P5x (serous) | 2 | 59 | active |
| PHF2 | Rucaparib | OCI-P5x (serous) | 3 | 46.9 | active |
| PHF2 | Vehicle | OCI-C5x (clear cell) | 1 | 39.2 | active |
| PHF2 | Vehicle | OCI-C5x (clear cell) | 2 | 40.1 | active |
| PHF2 | Vehicle | OCI-C5x (clear cell) | 3 | 38.1 | active |
| PHF2 | Vehicle | OCI-P5x (serous) | 1 | 68.9 | active |
| PHF2 | Vehicle | OCI-P5x (serous) | 2 | 59.2 | active |
| PHF2 | Vehicle | OCI-P5x (serous) | 3 | 93.5 | inactive |
| GLYR1 | Rucaparib | OCI-C5x (clear cell) | 1 | 41.4 | active |
| GLYR1 | Rucaparib | OCI-C5x (clear cell) | 2 | 27.8 | active |
| GLYR1 | Rucaparib | OCI-C5x (clear cell) | 3 | 48.7 | active |
| GLYR1 | Rucaparib | OCI-P5x (serous) | 1 | 93.9 | inactive |
| GLYR1 | Rucaparib | OCI-P5x (serous) | 2 | 87.3 | inactive |
| GLYR1 | Rucaparib | OCI-P5x (serous) | 3 | 89.6 | inactive |
| GLYR1 | Vehicle | OCI-C5x (clear cell) | 1 | 48.4 | active |
| GLYR1 | Vehicle | OCI-C5x (clear cell) | 2 | 70.6 | active |
| GLYR1 | Vehicle | OCI-C5x (clear cell) | 3 | 54 | active |
| GLYR1 | Vehicle | OCI-P5x (serous) | 1 | 72.4 | active |
| GLYR1 | Vehicle | OCI-P5x (serous) | 2 | 86.9 | inactive |
| GLYR1 | Vehicle | OCI-P5x (serous) | 3 | 83.4 | inactive |

Copied from above, 8 entries:
| target gene | rucaparib or vehicle | cell line | technical replicate | viability, normalised (%) | Call |
| --- | --- | --- | --- | --- | --- |
| SBDS | Rucaparib | OCI-C5x (clear cell) | 2 | 72.4 | active |
| SBDS | Rucaparib | OCI-C5x (clear cell) | 3 | 66.6 | active |
| SBDS | Rucaparib | OCI-P5x (serous) | 1 | 73.4 | active |
| SBDS | Rucaparib | OCI-P5x (serous) | 2 | 88.7 | inactive |
| SBDS | Rucaparib | OCI-P5x (serous) | 3 | 56.7 | active |
| SBDS | Vehicle | OCI-C5x (clear cell) | 1 | 40.4 | active |
| SBDS | Vehicle | OCI-C5x (clear cell) | 2 | 38.7 | active |
| SBDS | Vehicle | OCI-C5x (clear cell) | 3 | 47 | active |
